{"sequences": {"note": "By UniProt entry, the sequences of proteins in these tests, tags left out. Where a name states a change or a piece, a line headed by the entry shows the natural chain unless it says otherwise.", "UniProt Q01717": "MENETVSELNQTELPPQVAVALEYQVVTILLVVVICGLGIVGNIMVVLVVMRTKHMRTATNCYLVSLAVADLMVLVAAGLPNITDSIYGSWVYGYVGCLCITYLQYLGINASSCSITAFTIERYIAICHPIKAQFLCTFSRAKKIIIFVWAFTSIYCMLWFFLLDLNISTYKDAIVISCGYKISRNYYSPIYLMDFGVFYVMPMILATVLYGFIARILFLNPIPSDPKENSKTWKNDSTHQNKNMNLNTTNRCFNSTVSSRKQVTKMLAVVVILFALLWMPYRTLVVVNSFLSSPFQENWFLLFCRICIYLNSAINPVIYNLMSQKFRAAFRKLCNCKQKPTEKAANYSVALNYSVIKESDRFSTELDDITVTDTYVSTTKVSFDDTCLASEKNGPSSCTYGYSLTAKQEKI"}, "source": "PubChem BioAssay (EPA / NIEHS)", "note": "The shares of active, inactive and inconclusive entries below differ from those in the screen. Potencies of inconclusive entries are doubtful fits and often do not repeat. Active and inactive are the calls of the source. The calls were made as follows: active = hit-call score of the fitted dose curve at least 0.9, where 1 is the maximum; inconclusive = response in the unintended direction; inactive = score below 0.9."}
{"molecular_target": "rat Thyrotropin Releasing Hormone Receptor (TRH), Trhr (gene 25570) (UniProt Q01717)", "test": "NVS_GPCR_rTRH: NovaScreen (NVS) G Protein-Coupled Receptor Assay for rat Thyrotropin Releasing Hormone Receptor (TRH) (AID 2283329);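 also: hit means lower bound tracer signal versus DMSO baseline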", "outline": "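Rat forebrain membrane prep, radioligand displacement, filter scintillation readout at 4 h. Single conc 25 uM, duplicate; actives retested as concentration series. DMSO = negative control/baseline.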"}
{"smiles": "O=CCCl", "AC50": "inconclusive: 1.64 µM"}
{"smiles": "C=CCc1ccc(OC)cc1", "AC50": "inconclusive: 1.35 µM"}
{"smiles": "C=CC#N", "AC50": "inconclusive: 0.0492 µM"}
{"smiles": "Oc1ccc(-c2ccccc2)cc1", "AC50": "inconclusive: 25 µM"}
{"smiles": "Nc1c(Cl)cc([N+](=O)[O-])cc1Cl", "outcome": "inactive"}
{"smiles": "CCCCc1ccc(O)cc1", "AC50": "inconclusive: 10.8 µM"}
{"smiles": "O=C(O)COc1ccc(Cl)cc1", "AC50": "inconclusive: 25 µM"}
{"smiles": "CCOc1ccc(N)cc1", "AC50": "inconclusive: 0.0667 µM"}
{"smiles": "CC(C)(OO)c1ccccc1", "AC50": "inconclusive: 1.35 µM"}
{"smiles": "CON(C)C(=O)Nc1ccc(Cl)c(Cl)c1", "AC50": "inconclusive: 0.0475 µM"}
{"smiles": "CC(C)(C)N(NC(=O)c1ccc(Cl)cc1)C(=O)c1ccccc1", "outcome": "inactive"}
{"smiles": "COc1ccc(C=O)cc1OC", "AC50": "inconclusive: 0.425 µM"}
{"smiles": "N#Cc1nn(-c2c(Cl)cc(C(F)(F)F)cc2Cl)c(N)c1S(=O)C(F)(F)F", "note": "(configuration not stated)", "outcome": "inactive"}
{"smiles": "CC(C)OC(=O)Nc1ccccc1", "AC50": "inconclusive: 25 µM"}
{"smiles": "CO/N=C(/C(=O)OC)c1ccccc1COc1ccccc1C", "AC50": "inconclusive: 25 µM"}
{"smiles": "CC1(C)Cc2cccc(O)c2O1", "AC50": "inconclusive: 0.993 µM"}
{"smiles": "CC1(C)CCC(=Cc2ccc(Cl)cc2)C1(O)Cn1cncn1", "note": "(configuration not stated)", "AC50": "inconclusive: 24.9 µM"}
{"smiles": "C=C(C)CN(CC)c1c([N+](=O)[O-])cc(C(F)(F)F)cc1[N+](=O)[O-]", "AC50": "inconclusive: 6.61 µM"}
{"smiles": "CCc1cnc(C2=NC(C)(C(C)C)C(=O)N2)c(C(=O)O)c1", "note": "(configuration not stated)", "outcome": "inactive"}
{"smiles": "COP(=S)(OC)Oc1ccc(Sc2ccc(OP(=S)(OC)OC)cc2)cc1", "AC50": "inconclusive: 6.02 µM"}
{"smiles": "C[C@]12CC[C@H](O)CC1=CC[C@@H]1[C@@H]2CC[C@]2(C)C(=O)CC[C@@H]12", "outcome": "inactive"}
{"smiles": "CCOc1nc(F)cc2nc(S(=O)(=O)Nc3c(Cl)cccc3Cl)nn12", "outcome": "inactive"}
{"smiles": "CC1(C)CCC(Cc2ccc(Cl)cc2)C1(O)Cn1cncn1", "note": "(configuration not stated)", "AC50": "inconclusive: 0.735 µM"}
{"smiles": "CNC(=O)N(C)c1nnc(C(C)(C)C)s1", "AC50": "inconclusive: 25 µM"}
{"smiles": "COc1nn(C(=O)NS(=O)(=O)c2ccccc2OC(F)(F)F)c(=O)n1C", "outcome": "inactive"}
{"smiles": "CC(C)N1C(=O)N(c2ccccc2)CSC1=NC(C)(C)C", "AC50": "inconclusive: 25 µM"}
{"smiles": "CC(=O)c1cc(C(C)(C)C)cc2c1CCC2(C)C", "AC50": "inconclusive: 6.89 µM"}
{"smiles": "COC(N)=O", "outcome": "inactive"}
{"smiles": "OCCCCO", "AC50": "inconclusive: 1.37 µM"}
{"smiles": "CNC(=O)O/N=C/C(C)(C)S(C)(=O)=O", "outcome": "inactive"}
{"smiles": "FC(F)(F)c1ccc(Cl)cc1", "outcome": "inactive"}
{"smiles": "N#CCCC(Br)(C#N)CBr", "note": "(configuration not stated)", "outcome": "inactive"}
{"smiles": "O=C(CCl)Nc1ccccc1", "outcome": "inactive"}
{"smiles": "C[C@H]1CCCC(=O)CCC/C=C/c2cc(O)cc(O)c2C(=O)O1", "outcome": "inactive"}
{"smiles": "CC(=O)c1cc2c(cc1C)C(C)(C)C(C)CC2(C)C", "note": "(configuration not stated)", "outcome": "inactive"}
{"smiles": "CN(C)c1nc(=O)n(C2CCCCC2)c(=O)n1C", "AC50": "inconclusive: 25 µM"}
{"smiles": "Nc1ccc(N)cc1", "AC50": "inconclusive: 25 µM"}
